# Measurements as given in the supplement of paper PMC7858590.
# Where “and” joins values, the source holds several entries; their conditions need not be identical. Equal values may be shown once. ± gives the standard deviation of the averaged measurements. Whole data set: some 3,800 compounds, median “cell shape (eccentricity) Z-score vs DMSO control” near 1.1, cut for the lowest 2% near -4.7. The list shows a part of the results.
# Tested on: human monocyte-derived macrophages (M0)
# Assay: cell shape (eccentricity) Z-score vs DMSO control; higher = more elongated, M2-like morphology
# Details: 20 µM; 24 h; macrophage state: M0 (M-CSF)
# Method: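 Primary human monocyte-derived macrophages (M-CSF differentiated, pooled from 4 donors, 5000 cells/well in 384-well plates) were treated with each compound at 20 uM for 24 h, then fixed and stained with phalloidin/DAPI and imaged on an Opera Phenix (6 fields, about 1000 cells/well). Cell eccentricity was measured with CellProfiler, and a Z-score (t-test) was computed against 4 DMSO control wells in the same row. Negative values mean round (M1-like) cells and positive values mean elongated (M2-like) cells; the paper's hit cutoffs are Z <= -4 (M1) and Z >= 6 (M2). Scale: negative = round, M1-like.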
row,SMILES,cell shape (Z-score)
1,C=CCN1C[C@H](C(=O)N(CCCN(C)C)C(=O)NCC)C[C@@H]2c3cccc4[nH]cc(c34)C[C@H]21,4.57
2,O=C(c1ccccc1O)c1[nH]c(Cl)c(Cl)c1-n1c(C(=O)c2ccccc2O)cc(Cl)c1Cl,2.99
3,CCCCCCCCCCCCCC(=O)O[C@@H]1[C@@H](C)[C@@]2(O)[C@@H](C=C(CO)C[C@]3(O)C(=O)C(C)=C[C@@H]23)[C@@H]2C(C)(C)[C@]12OC(C)=O,7.06
4,COc1ccc(-c2cc(=O)c3c(OC)c(OC)c(OC)cc3o2)cc1,3.85
5,C/C=C1/CN2C3CC1C(CO)C2Cc1c3[nH]c2ccc(OC)cc12 (stereo not given),0.661 ± 2.9
6,COc1cc(Br)c(OC)c2c1C(CN)C2 (stereo not given),-4.96
7,COc1ccc(OC)c(C(O)C(C)N)c1 (stereo not given),2.8
8,O=C(O)COc1ccc(Cl)cc1Cl,1.28
9,C=C(C)[C@@]12O[C@@H]1[C@@]1(C)C(=C[C@H]2O)CC[C@@H](O)[C@@H]1C,2.83
10,C=C(C)[C@@H]1CCC(C)=C[C@H]1c1c(OC)cc(C)cc1OC,1.74
11,CC(C)n1cnc2c(C(=O)N[C@H]3CN4CCC3CC4)cc(Cl)cc21,-0.185
12,CN(C)c1ccc(/C=C2\CCCN=C2c2cccnc2)cc1,1.62
13,O=C1NCN(c2ccccc2)C12CCN(CCCOc1ccc(F)cc1)CC2,1.17
14,CC1(C)C2C[C@@H](O)[C@]3(C)C(CC[C@@]4(C)[C@H](c5ccoc5)OC(=O)[C@H]5O[C@]543)[C@@]2(C)[C@@H](O)C[C@H]1O (stereo not given in full),0.737
15,COC(=O)C=CC(=O)NC1CCC2(O)C3Cc4ccc(O)c5c4C2(CCN3CC2CC2)C1O5 (stereo not given),-2.22
16,CC1=C[C@H]2[C@]3(O)[C@H](C)[C@@H](O)[C@@]4(O)[C@H]([C@@H]3C=C(CO)C[C@]2(O)C1=O)C4(C)C,1.75
17,COc1ccc2c(c1O)-c1cc(O)cc3c1[C@@H](C2)N(C)CC3,0.611
18,C=C1CC2C(CC[C@]3(C)C(=O)CCC23)[C@@]2(C)C=CC(=O)C=C12 (stereo not given in full),3.28
19,COc1cc2occc2c2oc(=O)ccc12,4.65
20,CC(C)c1ccc2c(c1O)CC[C@H]1C3=C(CC[C@]21C)C(=O)OC3,-1.92
21,N#CC(C#N)=Cc1ccc(O)c(O)c1,2.09
22,CN([N+][O-])c1cc(O)ccc1O,-4.54
23,c1ccc(C2CC2)c(OCC2=NCCN2)c1,0.849 and 2.54

row,SMILES,cell shape (Z-score)
1,C[C@@H]1O[C@@H](O[C@H]2CC[C@]3(C=O)C4CC[C@]5(C)[C@@H](C6=CC(=O)OC6)CC[C@]5(O)C4CC[C@]3(O)C2)[C@H](O)[C@H](O)[C@H]1O (stereo not given in full),0.553
2,COc1cc(C(=O)O[C@H]2[C@@H]3C=CO[C@@H](O[C@@H]4O[C@H](CO)[C@@H](O)[C@H](O)[C@H]4O)[C@@H]3[C@@]3(CO)O[C@@H]23)ccc1O,-1.41
3,Clc1ccc(C(OCCN2CCCCC2)c2ccccc2)cc1 (stereo not given),9.16
4,c1cncc(C2=NCCC2)c1,0.998
5,CC(C)(C)c1cc(C=C(C#N)C#N)cc(C(C)(C)C)c1O,-0.65
6,CN1C(=O)COc2c1cc(Cl)cc2C(=O)NC1CN2CC[C@H]1CC2 (stereo not given),-3.51
7,C#CCN(C)[C@H](C)Cc1ccccc1,-1.13
8,O=c1[nH]c2ccccc2n1C1CCN(CCCC(c2ccc(F)cc2)c2ccc(F)cc2)CC1,-6.33
9,CC(C)(O)CCC(=O)[C@](C)(O)[C@H]1[C@H](O)C[C@@]2(C)[C@@H]3CC=C4C(C=C(O[C@@H]5O[C@H](CO)[C@@H](O)[C@H](O)[C@H]5O)C(=O)C4(C)C)[C@]3(C)C(=O)C[C@]12C (stereo not given in full),1.51
10,CC(NC(C)(C)C)C(=O)c1cccc(Cl)c1 (stereo not given),1.9
11,COC(=O)C1CC(=O)C[C@H]2[C@]3(C)C[C@@H](c4ccoc4)OC(=O)[C@H]3CC[C@@]12C (stereo not given in full),2.46
12,C=C(C)c1cc2cc(C(C)=O)c(O)cc2o1,3.96
13,COc1c2c(cc3c1OCO3)CC[N+](C)=C2,3.32
14,C=C[C@@H]1C2=CCOC(=O)C2=CO[C@H]1O[C@@H]1O[C@H](CO)[C@@H](O)[C@H](O)[C@H]1O,1.3
15,O=C(/C=C/c1ccccc1)OCC1OC(OC2OC=CC3C(O)C4OC4(CO)C23)C(O)C(O)C1O (stereo not given),-1.19
16,C=C(C)CN1CC[C@]23c4c5ccc(O)c4O[C@H]2c2[nH]c4ccccc4c2C[C@@]3(O)C1C5,-2.31
17,Cc1[nH]c2ccccc2c1CN(C)C,2.11
18,CN(C)CCc1ccc(O)cc1,2.3
19,C[N+]1(C)CCc2cc3c(cc2[C@H]1C1OC(=O)c2c1ccc1c2OCO1)OCO3 (stereo not given in full),-0.597
20,N#C/C(=C\c1ccc(O)cc1)C(=O)O,1.33
21,COC1=C[C@@H]2[C@@H]3Cc4ccc(OC)c(O)c4[C@]2(CCN3C)CC1=O,4.36
22,C[C@]12C=CC(=O)C=C1CC[C@@H]1C2CC[C@]2(C)C(=O)CCC12 (stereo not given in full),0.931 ± 0.72

# Arranged by count of non-hydrogen atoms (largest number first): some entries from above
row,SMILES,cell shape (Z-score)
10,CC(NC(C)(C)C)C(=O)c1cccc(Cl)c1 (stereo not given),1.9
17,Cc1[nH]c2ccccc2c1CN(C)C,2.11
18,CN(C)CCc1ccc(O)cc1,2.3
